Data as given in PubChem BioAssay AID1508587 (Peter MacCallum Cancer Centre, 2020)
Here is one part, drawn at random, of about 1,600 reagents. 623 of all reagents (39%) count as active. 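Calls are for each duplex; lactate ratios contain extreme outliers.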 A number with no mark means an inactive call. Not all columns of the deposit are shown. Reagent sequences are not shown.

Assay: 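Follow-up of vemurafenib sensitisers scored by lactate made per cell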 (follow-up of hits)
Cell system: human WM266.4 melanoma cells with a BRAF V600 mutation
Reagent: single siRNA against human genes, 25 nM
Time to read-out: 96 h
Conditions: vemurafenib 300 nM (about IC25), given 48 h after transfection for 48 h
Detection: 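Per-cell lactate from absorbance divided by DAPI nucleus counts, compared with and without vemurafenib, relative to non-targeting siRNA, mean of 2 replicates; nuclear counts also give cell number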
Reading the numbers: lactate per cell, drug vs no drug: higher = less drug-induced drop in lactate per cell; lactate per cell with vemurafenib: higher = more lactate per cell under drug
Hit rule: 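Enhancer call for any duplex whose drug versus no-drug per-cell lactate ratio is below 0.55 (2 SD beneath non-targeting average); genes confirmed when at least 2 of their 4 duplexes qualify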

With knock-down of CSKMT (citrate synthase lysine methyltransferase) [SID135619907], the screen gave lactate per cell, drug vs no drug 0.74; lactate per cell with vemurafenib 2.16. Against CSKMT (citrate synthase lysine methyltransferase) [SID135619908] the deposit lists lactate per cell, drug vs no drug 0.47 (active); lactate per cell with vemurafenib 0.8. After knock-down of CSKMT (citrate synthase lysine methyltransferase) [SID135619909], the record shows lactate per cell, drug vs no drug 0.57; lactate per cell with vemurafenib 0.65. For CSKMT (citrate synthase lysine methyltransferase) [SID135619910], the entry reads lactate per cell, drug vs no drug 0.76; lactate per cell with vemurafenib 0.94. Knock-down of SYNGAP1 (synaptic Ras GTPase activating protein 1) [SID134309609] gave: lactate per cell, drug vs no drug 0.48 (active); lactate per cell with vemurafenib 0.68. For SYNGAP1 (synaptic Ras GTPase activating protein 1) [SID134309610] the deposit lists lactate per cell, drug vs no drug 0.6; lactate per cell with vemurafenib 1.55.

SYNGAP1 (synaptic Ras GTPase activating protein 1) [SID134309611] gave lactate per cell, drug vs no drug 0.6; lactate per cell with vemurafenib 1.71. With knock-down of SYNGAP1 (synaptic Ras GTPase activating protein 1) [SID134309612], the record shows lactate per cell, drug vs no drug 0.44 (active); lactate per cell with vemurafenib 0.76. RRP8 (ribosomal RNA processing 8) [SID134262589] gave lactate per cell, drug vs no drug 0.44 (active); lactate per cell with vemurafenib 2.11. For RRP8 (ribosomal RNA processing 8) [SID134262590], the entry reads lactate per cell, drug vs no drug 0.48 (active); lactate per cell with vemurafenib 0.57. With knock-down of RRP8 (ribosomal RNA processing 8) [SID134262591] the results were lactate per cell, drug vs no drug 0.58; lactate per cell with vemurafenib 0.85. RRP8 (ribosomal RNA processing 8) [SID134262592] gave lactate per cell, drug vs no drug 0.45 (active); lactate per cell with vemurafenib 0.79.
